# The exact form of at least one protein or probe is not confirmed. A negative result means that nothing was seen under these conditions.
# The chains behind the UniProt entries cited, without tags or fusion partners. Residues count along the entry.
# UniProt Q96T25, 418-552: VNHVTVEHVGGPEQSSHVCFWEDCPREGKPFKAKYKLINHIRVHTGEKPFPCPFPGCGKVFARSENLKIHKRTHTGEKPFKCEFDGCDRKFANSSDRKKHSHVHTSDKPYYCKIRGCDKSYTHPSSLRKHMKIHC
# Biological target: ZIC5 zinc finger domain (GST-ZIC5 ZF) (Homo sapiens) (UniProt Q96T25)
# Assay: EMSA
# Conditions: 40 mM Tris-HCl pH 8.0, 7 mM MgCl2, 90 mM NaCl, poly(dI-dC), purified recombinant protein, protein details: GST N-terminal fusion (pGEX-6P), E. coli BL21, label: biotin
Sequence,binding result,binding result (variant of GBS probe (Gli binding sequence))
TCAGCCAATCAGCGGTACGGGGGGCGGTGCCTCCG (double strand) [pCDH1 probe (E-cadherin promoter)],binds,–
GATCCTGTGATTTTCGTCTTGGGTGATCTCCCTCG (double strand) [M5 probe],–,no binding
GATCCTGTGATTTTCGTCTTGGGTGGTCTCCCTCG (double strand) [GBS probe (Gli binding sequence)],binds,–

# — US20190062751
